Structures are written as SMILES. Values joined by “and” are separate entries in the source; they are usually repeats but may differ in a detail not shown here. Identical values can stand only once. This is one part of the list. The main result of the screen is listed elsewhere. These columns were measured beside it and carry no call. The list favours compounds with an active or inconclusive main result. The note in brackets gives the kind of curve behind each potency; many fits are weak.

The nature of this assay: qHTS Assay for Modulators of Lamin A Splicing. As to conditions: HeLa LMNA splicing GFP/RFP minigene ratio, 48 h. Summed up: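 S3 HeLa cells stably expressing lamin A-EGFP splicing minigene plus DsRed2, 600 cells/well, 48 h compound exposure at 37C. Laser-scanning cytometry; analysed as GFP (500-530 nm)/RFP (575-640 nm) total intensity ratio; 0.5% DMSO vehicle.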
On the technique in general: qHTS replaces the single test concentration by a dilution series.

Setting [1] is: measured here: GFP splicing reporter channel.
Setting [2] is: measured here: RFP viability control channel.

For the molecule `COc1ccc(NC(=O)CCc2c(C)nn(-c3ccc(N4CCCCC4)nn3)c2C)cc1Cl`, under setting [1], the half-maximal activity concentration (AC50) was 12.6 µM [falling, partial curve, poor fit].
In the case of `CC1CCN(CCOCCOc2ccccc2-c2ccccc2)CC1`, the AC50 under setting [2] is 0.447 µM [rising, full curve].
For the molecule `O=C(NC(=S)NC(c1ccccc1)c1ccncc1)c1ccccc1` (configuration not stated), the AC50 under setting [2] is 35.5 µM [rising, single point].
Same read-out and setting: then `CCc1nnc(NC(=O)C2c3ccccc3Oc3ccccc32)s1`, with 11.2 µM [rising, partial curve].
`Cc1cc(C)n(Cc2ccc(C(=O)Nc3cccc(Br)c3)o2)n1`: the AC50 was 7.94 µM [rising, partial curve, poor fit] under setting [1] and 11.2 µM [rising, single point] under setting [2].
Turning to `Cc1nn(Cc2ccc(Cl)c(Cl)c2)c(C)c1NC(=O)c1cc(CC(C)C)on1`, the AC50 under setting [2] was 12.6 µM [rising, partial curve, poor fit].
`CCCC(c1nnnn1CCC(C)C)N1CCC(C(N)=O)CC1` (configuration not stated): the AC50 reads like this: under setting [1], 15.8 µM [falling, single point]; under setting [2], 0.708 µM [falling, single point].
In the case of `Cc1cc(C(=O)CSc2nnnn2C)c(C)n1-c1cccc(F)c1`, the half-maximal activity concentration (AC50) by setting is: under setting [1], 17.8 µM [rising, partial curve]; under setting [2], 35.5 µM [rising, single point].
In the case of `Cc1cccc(CN2C(=O)c3ccccc3Sc3ccc(C(=O)NC4CCCCC4)cc32)c1`, the AC50 under setting [2] is 35.5 µM [rising, single point].
As for `C=CCn1c(-c2csc(-c3ccccc3)n2)n[nH]c1=S`, the AC50 runs as follows: under setting [1], 5.01 µM [rising, full curve, poor fit]; under setting [2], 7.08 µM [rising, partial curve, poor fit].
Consider `O=C(Nc1ccc2nc(SCC(=O)N3CCOCC3)sc2c1)c1cccc(Br)c1`, for which the AC50 under setting [1] was 0.316 µM [falling, partial curve, poor fit].
On to `Cc1cccc(CNC(=O)C2CCC(CNS(=O)(=O)c3ccc4c(c3)CCCC(=O)N4)CC2)c1` (configuration not stated), for which, under setting [1], the AC50 was 15.8 µM [falling, partial curve, poor fit].
With `CCc1nc(N2CCN(C(=O)c3ccccc3)CC2)c(C#N)c2c1COC(C)(C)C2`, under setting [2], the AC50 was 31.6 µM [rising, single point].
In the case of `O=C(O)/C=C/C(=O)Nc1ccc(O)cc1`, the half-maximal activity concentration (AC50) under setting [1] is 20 µM [rising, partial curve, poor fit].
For the molecule `Cc1ccccc1Cc1c(C)nc2c(C(=O)NCc3ccc4c(c3)OCO4)cnn2c1C`, the AC50 runs as follows: under setting [1], 5.62 µM [rising, single point]; under setting [2], 5.62 µM [rising, single point].
As for `CN(CCC#N)C(=O)COC(=O)c1ccc2[nH]c3c(c2c1)CCCC3`, the AC50 under setting [1] is 12.6 µM [falling, partial curve, poor fit].
In the case of `O=C(NCc1cccs1)Nc1cc(Cl)ccc1Cl`, under setting [2], the AC50 is 5.01 µM [rising, full curve, poor fit].
As to `CC(C(=O)c1ccc(-c2ccccc2)cc1)[n+]1ccccc1` (configuration not stated), the AC50 is 12.6 µM [rising, single point] under setting [1] and 22.4 µM [rising, single point] under setting [2].
On to `CC1=NN(c2ccccc2)C(=O)/C1=C\c1ccc(Br)s1`, for which the AC50 under setting [2] was 25.1 µM [rising, single point].
Turning to `O=C(CSC1=NCCS1)Nc1ccc(S(=O)(=O)N2CCCCCC2)cc1`, under setting [2], the AC50 was 7.08 µM [rising, partial curve, poor fit].
Take `Fc1ccc(C2=CSC3=NCCN23)cc1`: the AC50 reads like this: under setting [1], 0.00708 µM [rising, full curve]; under setting [2], 0.00501 µM [rising, full curve, poor fit].
In the case of `COc1ccc(-c2cnc(C)o2)cc1S(=O)(=O)Nc1ccc(NC(C)=O)cc1`, under setting [1], the AC50 was 0.02 µM [rising, full curve, poor fit].
Turning to `COC(=O)c1c(NC(=O)CN(c2ccc(C)c(C)c2)S(C)(=O)=O)sc2c1CCCC2`, the AC50 under setting [2] is 8.91 µM [rising, partial curve, poor fit].
Consider `O=C1CC(N2CCN(c3cccc(C(F)(F)F)c3)CC2)C(=O)N1c1ccccc1F` (configuration not stated), for which the AC50 under setting [1] is 12.6 µM [rising, partial curve].
Consider `CC(C)=CC(=O)Nc1c(C)cc(C)cc1Cl`, for which the AC50 by setting is: under setting [1], 0.398 µM [rising, full curve]; under setting [2], 0.2 µM [rising, full curve, poor fit].
For `COc1ccc(NS(=O)(=O)c2ccc(N3CCOCC3)c(NC(=O)c3cccc(F)c3)c2)cc1`, the AC50 is 2.51 µM [rising, full curve] under setting [1] and 6.31 µM [rising, partial curve] under setting [2].
On to `CO/N=C/C(=N\Nc1ccc(C)cc1)C(=O)c1ccc(OC)cc1`, for which the AC50 is, setting by setting: under setting [1], 35.5 µM [falling, single point]; under setting [2], 3.55 µM [falling, partial curve].
With `Cc1cccc(C)c1Nc1nnc(SCc2nc3ccccc3s2)s1`, the AC50 under setting [1] is 20 µM [rising, single point] and the AC50 under setting [2] is 11.2 µM [rising, partial curve].
Turning to `CCc1nnc(NC(=O)c2csc3c2CCC(C)C3)s1` (configuration not stated), the AC50 under setting [1] is 0.282 µM [rising, full curve, poor fit] and the AC50 under setting [2] was 5.62 µM [falling, single point].
Regarding `O=C(O)c1cc(NCc2c(F)cccc2Cl)ccc1N1CCOCC1`, the half-maximal activity concentration (AC50) under setting [2] is 11.2 µM [rising, single point].
With `Cc1ccc(NC2=Nc3ccccc3N3C2=Nc2c(c(C)nn2-c2ccccc2)C3c2ccc(O)c(O)c2)cc1` (configuration not stated), the AC50 reads like this: under setting [1], 0.562 µM [falling, single point]; under setting [2], 0.0355 µM [falling, single point].
Take `COc1ccc(NC(=O)COC(=O)C23CC4CC(CC(Cl)(C4)C2)C3)c(OC)c1`: the AC50 reads like this: under setting [1], 0.00316 µM [falling, full curve, poor fit]; under setting [2], 0.00316 µM [falling, full curve, poor fit].
Consider `COc1ccc(CN(C(=S)Nc2ccccc2)C2CC(=O)N(c3ccc(Cl)cc3)C2=O)cc1` (configuration not stated), for which the AC50 is 22.4 µM [falling, single point] under setting [1] and 25.1 µM [falling, single point] under setting [2].
Regarding `COc1ccc(/C=C(\C#N)C(=O)NCCCn2ccnc2)cc1`, the AC50 is 7.94 µM [rising, partial curve] under setting [1] and 7.94 µM [rising, partial curve] under setting [2].
As for `S=C(NCc1ccco1)N/N=C/c1ccccc1Cl`, the AC50 under setting [2] was 14.1 µM [rising, partial curve].
In the case of `O=C(COC(=O)/C=C/c1ccc2c(c1)OCO2)Nc1ccccc1`, the AC50 under setting [1] was 14.1 µM [falling, single point].
For the molecule `COc1ccccc1NC(=O)c1ccc(-n2cccn2)c([N+](=O)[O-])c1`, the AC50 under setting [1] was 35.5 µM [falling, single point].
For the molecule `CC(C)c1cc(C(=O)N2CCN(C(c3ccccc3)c3ccccc3)CC2)no1`, the AC50 is 11.2 µM [rising, partial curve] under setting [1] and 17.8 µM [rising, single point] under setting [2].
For the molecule `Cc1cc(C)cc(NC(=O)CSc2nc3c(c(=O)[nH]2)CN(Cc2ccc(F)cc2)CC3)c1`, the AC50 by setting is: under setting [1], 20 µM [falling, partial curve, poor fit]; under setting [2], 35.5 µM [falling, single point].
As for `CC(=O)c1ccc(N2CCN(S(=O)(=O)c3ccc(-c4coc(C)n4)cc3)CC2)cc1`, the AC50 was 3.98 µM [rising, partial curve, poor fit] under setting [1] and 6.31 µM [rising, partial curve, poor fit] under setting [2].
Take `N[C@@H](Cc1cc(I)c(Oc2ccc(O)c(I)c2)c(I)c1)C(=O)O`: the AC50 is, setting by setting: under setting [1], 35.5 µM [falling, single point] and 10 µM [rising, single point]; under setting [2], 2.82 µM [rising, partial curve, poor fit] and 11.2 µM [rising, partial curve].
In the case of `Cc1ccccc1COC[C@H](CC(C)C)N1CCN(C(=O)c2cccc(C(F)(F)F)c2)CCC1=O`, under setting [2], the AC50 was 14.1 µM [rising, partial curve].
Turning to `CCOC(=O)Cc1csc(NC(=S)NC(=O)C(C)(C)C)n1`, the AC50 runs as follows: under setting [1], 14.1 µM [rising, single point]; under setting [2], 31.6 µM [rising, single point].
Consider `COc1cc(NC(=O)CN2CCN(c3ccc(F)cc3)CC2)cc(OC)c1`, for which the AC50 is 5.62 µM [rising, partial curve] under setting [1] and 2.51 µM [rising, partial curve, poor fit] under setting [2].
For `O=c1c(F)cn(C2CCCO2)c(=O)n1Cc1ccc(Cl)cc1` (configuration not stated), under setting [1], the AC50 was 0.0224 µM [rising, full curve, poor fit].
As to `COc1ccc(C2(O)CCN(CCCCOc3ccccc3)CC2)cc1`, under setting [2], the AC50 is 35.5 µM [rising, single point].
Turning to `CN(C)c1ccnc(N(Cc2ccccc2)Cc2ccccc2)c1C#N`, the concentration at half-maximal activity (AC50) under setting [2] was 12.6 µM [rising, single point].
As to `CC1=CC2=NC(=O)/C(=C\c3ccc(-c4cccc(Cl)c4)o3)C(=N)N2O1`, the AC50 under setting [2] was 3.55 µM [rising, full curve, poor fit].
Take `O=C(NC1CCCC1)C(c1ccccc1F)N(C(=O)Cc1cccs1)c1ccc2c(c1)OCCO2` (configuration not stated): the AC50 under setting [2] was 12.6 µM [rising, partial curve, poor fit].
With `CCN1CCN(C(=S)Nc2cccc(C(F)(F)F)c2)CC1`, the concentration at half-maximal activity (AC50) by setting is: under setting [1], 11.2 µM [rising, partial curve]; under setting [2], 12.6 µM [rising, partial curve].
`O=C(/C=C/c1ccccc1Cl)N1CCC(c2nc3ccccc3o2)CC1`: the AC50 is 8.91 µM [falling, partial curve, poor fit] under setting [1] and 0.0631 µM [falling, full curve, poor fit] under setting [2].
Consider `Nc1ncn([C@H]2O[C@@H](CO)[C@@H](O)[C@@H]2O)c(=O)n1`, for which the AC50 reads like this: under setting [1], 0.708 µM [falling, full curve]; under setting [2], 0.447 µM [falling, full curve].

Usually AC50 stands for the midpoint of the concentration-response curve, whichever way the signal moves.

The record behind these values is PubChem BioAssay AID1487 (National Center for Advancing Translational Sciences (NCATS), 2009).
